One molecule from article doi:10.1101/2025.06.03.657556 can be followed below.

Sequences of proteins named here, by UniProt entry; tags and fusion partners are left off.
UniProt P61586: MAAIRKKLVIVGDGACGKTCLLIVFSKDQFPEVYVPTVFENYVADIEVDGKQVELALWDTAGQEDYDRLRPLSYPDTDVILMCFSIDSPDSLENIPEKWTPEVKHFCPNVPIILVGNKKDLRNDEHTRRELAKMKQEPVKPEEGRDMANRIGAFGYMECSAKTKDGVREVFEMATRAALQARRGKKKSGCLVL

This assay has as its target Ras homolog gene family member A (RhoA) (human (endogenous in HEK 293F)) (UniProt P61586). Description: proximity ligation.

These are yes or no findings as the source states them, for the method shown. Binding seen in cells or lysates may run through a third protein. Some binding calls cover weakened binding; strength is not graded here.

B1: RhoGDIα (protein, UniProt P52565 1-204)
chain: MAEQEPTAEQLAQIAAENEEDEHSVNYKPPAQKSIQEIQELDKDDESLRKYKEALLGRVAVSADPNVPNVVVTGLTLVCSSAPGPLELDLTGDLESFKKQSFVLKEGVEYRIKISFRVNREIVSGMKYIQHTYRKGVKIDKTDYMVGSYGPRAEEYEFLTPVEEAPKGMLARGSYSIKSRFTDDDKTDHLSWEWNLTIKKDWKD
As to B1, the binding entry is listed as “binds”.
